# Experimental data reported in PubChem BioAssay AID504444 (National Center for Advancing Translational Sciences (NCATS), 2011).
# The campaign covered roughly 360,000 compounds. About 7,500 (2.1%) were called active. This list was built around the results that the source calls inconclusive (neither active nor inactive); the mix of calls is not that of the screen. Calls follow the shape of the dose curve; as a rule, active = well fitted inhibition curve with a large enough effect; inconclusive = small, poorly fitted or top-dose-only effect, or effect the other way; inactive = flat fitted curve, though single readings scatter. A potency beside an inconclusive call is a rough fit, not a confirmed value.
# Test: Nrf2 qHTS screen for inhibitors; also: nearly all actives have a fitted effect of over 60% in size
# Conditions: A549 ARE-Fluc reporter, luciferase luminescence, 18-24 h; activity change, negative = inhibition: at 46 µM (top of the series)
# In short: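 A549 ARE_Fluc cells (5000/well, 5% FBS OPTI-MEM) pre-incubated 2 h, then treated with compounds 18-24 h at 37C/5% CO2 in concentration-response. CellTiter-Fluor viability read first; BugLite luciferase luminescence after 15 min at room temperature gives Nrf2 activity.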
# % is scaled to controls: 0 for no effect and ±100 for the full control effect; potency is read from the fitted curve at half-maximal effect.
Structure (SMILES),Potency,"activity change, negative = inhibition"
COC(=O)/C=C\C(C#N)(C#N)N=Cc1ccc(OC)cc1,"inconclusive: 25.9 µM [falling, single point]",
COc1ccc(-n2ncc(C(=O)N3CCN(Cc4ccccc4)CC3)c2C2CCN(C(=O)OC(C)(C)C)CC2)cc1,,inactive: 1.31%
CCOc1cc(C(=O)N(Cc2nc(-c3ccc(C)cc3)no2)C(C)C)cc(OCC)c1OCC,"inconclusive: 29.1 µM [falling, partial curve, poor fit]",
CCOC(=O)c1ccc(NC(=O)CC2C(=O)N(c3ccccc3)C(=O)N2Cc2ccc(C)cc2)cc1 (centres undefined),"inconclusive: 25.9 µM [falling, partial curve, poor fit]",
COc1ccc(C2=NN(C(=O)CSc3cn(C)c4ccccc34)C(c3ccc(OC)cc3)C2)cc1 (centres undefined),"inconclusive: 29.1 µM [falling, single point]",
COc1ccc(CC2(CO)CCN(S(=O)(=O)c3sccc3C)CC2)cc1,,inactive: -24.1%
CCCOc1ccc(C(=O)Nc2ccc(S(=O)(=O)NC3=NCCCCC3)cc2)cc1,active: 18.4 µM,
COc1ccc(C(=O)Nc2cnc3ccccn3c2=O)cc1,"inconclusive: 29.1 µM [activator, single point]",
O=C(COc1ccccc1/C=C1\SC(=O)NC1=O)Nc1ccc(F)cc1,"inconclusive: 7.31 µM [falling, partial curve, poor fit]",
CC(C)(C)C(=O)Nc1ccc(-c2nc3ccccc3s2)cc1,active: 2.59 µM,
COc1cccc2c1Oc1ncccc1N(C(=O)CCC(=O)NCc1cccc(C)c1)C2,"inconclusive: 16.4 µM [falling, single point]",
CC(C)c1ccc(NC2CCCN(C(=O)CSc3nncn3C)C2)cc1 (centres undefined),,inactive: -13.7%
O=C(c1ccco1)N(Cc1ccc([N+](=O)[O-])cc1)c1ccc(Br)cc1,"inconclusive: 1.16 µM [falling, partial curve, poor fit]",
Cc1ccc(NC(=O)c2ccc(S(=O)(=O)N3CC(C)CC(C)C3)cc2)cc1S(=O)(=O)N1CCOCC1 (centres undefined),"inconclusive: 29.1 µM [falling, single point]",
Cc1nc(CN(C)C(=O)CC2C(=O)NCCN2Cc2ccc(-c3ccccc3)cc2)cs1 (centres undefined),"inconclusive: 13 µM [falling, partial curve, poor fit]",
CCc1c(SCCC(=O)O)nc2ccccc2c1C,,inactive: -7.59%
CCNc1nc2c(c(=O)n(C)c(=O)n2C)n1Cc1ccc(Cl)cc1,active: 9.2 µM,
COc1ccccc1OCc1nc2ccccc2[nH]1,"inconclusive: 9.2 µM [activator, partial curve]",
CCOc1ccc(NC(=O)COC(=O)c2cc([N+](=O)[O-])ccc2N2CCOCC2)cc1,"inconclusive: 14.6 µM [falling, partial curve, poor fit]",

# A different layout for some results above.
Structure (SMILES) | Potency | activity change, negative = inhibition
COc1ccccc1OCc1nc2ccccc2[nH]1 | inconclusive: 9.2 µM [activator, partial curve] | 
CCOc1ccc(NC(=O)COC(=O)c2cc([N+](=O)[O-])ccc2N2CCOCC2)cc1 | inconclusive: 14.6 µM [falling, partial curve, poor fit] | 
